In article PMC4821604:
No constants are given. Whether binding was seen depends on the method and setting. In cells and extracts the contact can be indirect. Some binding calls cover weakened binding; strength is not graded here.

The chains behind the UniProt entries cited, without tags or fusion partners.
UniProt Q9W0T1: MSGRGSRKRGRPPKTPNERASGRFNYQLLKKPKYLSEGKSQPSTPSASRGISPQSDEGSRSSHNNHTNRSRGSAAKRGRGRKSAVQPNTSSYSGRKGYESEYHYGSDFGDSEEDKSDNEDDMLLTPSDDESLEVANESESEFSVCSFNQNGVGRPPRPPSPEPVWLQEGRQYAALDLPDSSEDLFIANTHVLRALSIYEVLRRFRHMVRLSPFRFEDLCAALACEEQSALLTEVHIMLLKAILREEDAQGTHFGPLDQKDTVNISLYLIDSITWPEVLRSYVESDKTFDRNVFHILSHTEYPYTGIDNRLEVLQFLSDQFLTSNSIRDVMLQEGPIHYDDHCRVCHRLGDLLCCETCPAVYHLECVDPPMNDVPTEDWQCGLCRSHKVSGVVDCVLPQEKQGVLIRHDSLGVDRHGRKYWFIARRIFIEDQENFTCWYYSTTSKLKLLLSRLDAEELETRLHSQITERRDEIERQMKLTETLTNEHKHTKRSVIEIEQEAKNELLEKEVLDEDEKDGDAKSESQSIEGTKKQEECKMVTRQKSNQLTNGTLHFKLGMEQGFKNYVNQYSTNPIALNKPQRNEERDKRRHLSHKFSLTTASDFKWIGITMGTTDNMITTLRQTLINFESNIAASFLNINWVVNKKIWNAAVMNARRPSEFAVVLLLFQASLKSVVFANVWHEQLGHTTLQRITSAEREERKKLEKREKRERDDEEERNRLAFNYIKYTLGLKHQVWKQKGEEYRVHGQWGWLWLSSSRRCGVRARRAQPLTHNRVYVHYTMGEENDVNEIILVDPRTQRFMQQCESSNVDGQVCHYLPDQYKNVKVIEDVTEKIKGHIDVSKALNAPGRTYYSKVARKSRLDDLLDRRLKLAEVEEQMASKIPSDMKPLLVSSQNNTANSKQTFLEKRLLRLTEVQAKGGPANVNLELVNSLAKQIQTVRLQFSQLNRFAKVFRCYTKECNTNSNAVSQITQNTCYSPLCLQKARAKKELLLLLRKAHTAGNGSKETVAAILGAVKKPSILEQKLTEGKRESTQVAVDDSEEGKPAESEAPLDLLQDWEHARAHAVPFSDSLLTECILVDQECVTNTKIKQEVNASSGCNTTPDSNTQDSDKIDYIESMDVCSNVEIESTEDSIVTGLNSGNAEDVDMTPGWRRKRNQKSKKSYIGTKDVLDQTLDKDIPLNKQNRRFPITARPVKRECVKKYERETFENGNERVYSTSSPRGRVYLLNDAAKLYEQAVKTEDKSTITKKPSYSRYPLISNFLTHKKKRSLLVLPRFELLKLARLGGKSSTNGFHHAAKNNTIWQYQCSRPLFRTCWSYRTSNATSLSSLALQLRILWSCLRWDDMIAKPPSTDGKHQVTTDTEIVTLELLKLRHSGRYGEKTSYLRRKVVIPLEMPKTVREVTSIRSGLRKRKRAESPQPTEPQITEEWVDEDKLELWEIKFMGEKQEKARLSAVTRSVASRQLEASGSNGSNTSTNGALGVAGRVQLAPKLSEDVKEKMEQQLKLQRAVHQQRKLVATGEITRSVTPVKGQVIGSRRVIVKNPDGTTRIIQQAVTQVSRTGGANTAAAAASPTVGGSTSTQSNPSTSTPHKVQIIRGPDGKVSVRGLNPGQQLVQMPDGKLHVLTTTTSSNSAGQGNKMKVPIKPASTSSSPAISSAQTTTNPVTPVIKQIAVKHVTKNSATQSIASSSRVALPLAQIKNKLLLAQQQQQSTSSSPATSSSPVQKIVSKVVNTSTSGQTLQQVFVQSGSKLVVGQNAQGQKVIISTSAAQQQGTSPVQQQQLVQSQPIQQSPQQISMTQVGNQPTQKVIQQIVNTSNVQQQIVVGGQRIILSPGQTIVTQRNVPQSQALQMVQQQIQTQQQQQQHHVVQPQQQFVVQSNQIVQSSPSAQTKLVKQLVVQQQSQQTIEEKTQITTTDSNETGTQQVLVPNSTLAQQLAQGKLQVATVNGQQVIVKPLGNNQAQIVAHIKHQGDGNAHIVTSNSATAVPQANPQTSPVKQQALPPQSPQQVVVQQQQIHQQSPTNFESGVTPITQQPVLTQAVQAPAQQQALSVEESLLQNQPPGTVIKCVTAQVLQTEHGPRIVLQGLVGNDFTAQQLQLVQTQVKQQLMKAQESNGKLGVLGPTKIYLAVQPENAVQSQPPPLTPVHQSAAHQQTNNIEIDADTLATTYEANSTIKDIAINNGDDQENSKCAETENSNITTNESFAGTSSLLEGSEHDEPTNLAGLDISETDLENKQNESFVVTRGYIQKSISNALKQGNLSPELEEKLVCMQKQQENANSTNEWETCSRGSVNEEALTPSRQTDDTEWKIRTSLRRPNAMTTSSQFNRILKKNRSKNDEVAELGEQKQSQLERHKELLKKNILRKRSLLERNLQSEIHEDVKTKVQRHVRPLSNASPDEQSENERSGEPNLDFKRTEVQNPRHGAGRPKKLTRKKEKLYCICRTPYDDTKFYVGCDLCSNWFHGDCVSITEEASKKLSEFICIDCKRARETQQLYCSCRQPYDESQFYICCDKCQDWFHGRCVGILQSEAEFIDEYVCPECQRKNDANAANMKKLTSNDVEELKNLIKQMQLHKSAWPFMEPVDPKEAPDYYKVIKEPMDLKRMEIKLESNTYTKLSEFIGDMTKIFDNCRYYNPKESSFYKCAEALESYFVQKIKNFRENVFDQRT
UniProt Q7JW27: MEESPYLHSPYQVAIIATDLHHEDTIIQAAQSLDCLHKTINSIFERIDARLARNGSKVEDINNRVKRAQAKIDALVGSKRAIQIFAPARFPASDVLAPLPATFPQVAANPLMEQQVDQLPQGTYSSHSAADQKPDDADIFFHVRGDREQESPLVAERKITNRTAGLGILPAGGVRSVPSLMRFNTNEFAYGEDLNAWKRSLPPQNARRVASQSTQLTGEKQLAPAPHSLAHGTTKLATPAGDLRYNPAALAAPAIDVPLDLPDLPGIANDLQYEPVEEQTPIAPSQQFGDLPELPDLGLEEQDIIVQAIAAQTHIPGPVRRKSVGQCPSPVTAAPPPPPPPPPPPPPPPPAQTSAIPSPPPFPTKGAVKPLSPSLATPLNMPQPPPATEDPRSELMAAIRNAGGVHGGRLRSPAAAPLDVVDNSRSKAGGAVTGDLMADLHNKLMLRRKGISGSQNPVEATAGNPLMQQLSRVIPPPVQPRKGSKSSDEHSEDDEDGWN

Tests used:
[1] = target: T1, Centrosomal Protein 190 (CP190) (Drosophila (endogenous in S2 cells)) (UniProt Q24478); experiment: co-IP; S2 soluble nuclear fraction (extracted at 400 mM KCl, dialysed to 100 mM KCl) diluted into 1xPBS, 5 mg/ml BSA, 0.1% Tween-20; antibody-coated Protein G Dynabeads, 2.5 h, 4°C; four washes in 1xPBS, 0.1% Tween-20; blot, 5% input
T1 sequence: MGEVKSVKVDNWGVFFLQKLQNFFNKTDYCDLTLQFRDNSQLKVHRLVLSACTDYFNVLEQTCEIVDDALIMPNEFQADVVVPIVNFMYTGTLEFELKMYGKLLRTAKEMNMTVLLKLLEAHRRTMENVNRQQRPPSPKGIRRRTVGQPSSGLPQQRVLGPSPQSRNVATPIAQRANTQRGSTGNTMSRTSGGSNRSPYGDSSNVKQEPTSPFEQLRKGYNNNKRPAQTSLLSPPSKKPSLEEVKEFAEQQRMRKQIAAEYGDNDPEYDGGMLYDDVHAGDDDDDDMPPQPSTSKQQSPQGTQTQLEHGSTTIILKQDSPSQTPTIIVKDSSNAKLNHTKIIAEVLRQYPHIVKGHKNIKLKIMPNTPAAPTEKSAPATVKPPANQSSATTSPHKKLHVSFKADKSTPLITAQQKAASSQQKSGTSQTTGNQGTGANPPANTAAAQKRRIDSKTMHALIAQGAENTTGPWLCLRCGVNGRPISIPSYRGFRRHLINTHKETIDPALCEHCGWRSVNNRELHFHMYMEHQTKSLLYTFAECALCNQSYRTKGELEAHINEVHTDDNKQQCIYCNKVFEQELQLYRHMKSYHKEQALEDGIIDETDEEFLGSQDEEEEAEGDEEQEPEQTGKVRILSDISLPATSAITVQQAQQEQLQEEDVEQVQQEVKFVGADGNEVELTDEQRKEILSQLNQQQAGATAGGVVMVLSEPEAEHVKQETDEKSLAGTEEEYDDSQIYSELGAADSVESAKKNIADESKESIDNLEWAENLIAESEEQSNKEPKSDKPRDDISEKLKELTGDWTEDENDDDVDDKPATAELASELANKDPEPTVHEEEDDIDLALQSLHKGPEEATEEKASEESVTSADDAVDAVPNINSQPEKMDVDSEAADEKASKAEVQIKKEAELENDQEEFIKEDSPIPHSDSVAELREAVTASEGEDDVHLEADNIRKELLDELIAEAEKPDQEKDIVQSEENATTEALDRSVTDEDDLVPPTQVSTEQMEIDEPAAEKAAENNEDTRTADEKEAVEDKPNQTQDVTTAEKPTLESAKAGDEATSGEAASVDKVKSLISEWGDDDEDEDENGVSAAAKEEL

[2] = target: Nurf301/Enhancer of bithorax (E(bx)), the specificity subunit of Drosophila NURF (Drosophila (endogenous in S2 cells)) (UniProt Q9W0T1); experiment: as above

Row | binding [1] | binding [2] | Substance
1 | binds | binds | Washout (Wash), subunit of the DREF/TRF2 complex (from UniProt Q7JW27 1-499)
2 | binds | – | Nurf301/Enhancer of bithorax (E(bx)), the specificity subunit of Drosophila NURF (from UniProt Q9W0T1 1-2669)
